Consider 1 molecule from paper PMC3832804.

By UniProt entry, the sequences of proteins in these tests, tags left out. Residues count along the entry.
UniProt Q3UH93, residues 49-1925: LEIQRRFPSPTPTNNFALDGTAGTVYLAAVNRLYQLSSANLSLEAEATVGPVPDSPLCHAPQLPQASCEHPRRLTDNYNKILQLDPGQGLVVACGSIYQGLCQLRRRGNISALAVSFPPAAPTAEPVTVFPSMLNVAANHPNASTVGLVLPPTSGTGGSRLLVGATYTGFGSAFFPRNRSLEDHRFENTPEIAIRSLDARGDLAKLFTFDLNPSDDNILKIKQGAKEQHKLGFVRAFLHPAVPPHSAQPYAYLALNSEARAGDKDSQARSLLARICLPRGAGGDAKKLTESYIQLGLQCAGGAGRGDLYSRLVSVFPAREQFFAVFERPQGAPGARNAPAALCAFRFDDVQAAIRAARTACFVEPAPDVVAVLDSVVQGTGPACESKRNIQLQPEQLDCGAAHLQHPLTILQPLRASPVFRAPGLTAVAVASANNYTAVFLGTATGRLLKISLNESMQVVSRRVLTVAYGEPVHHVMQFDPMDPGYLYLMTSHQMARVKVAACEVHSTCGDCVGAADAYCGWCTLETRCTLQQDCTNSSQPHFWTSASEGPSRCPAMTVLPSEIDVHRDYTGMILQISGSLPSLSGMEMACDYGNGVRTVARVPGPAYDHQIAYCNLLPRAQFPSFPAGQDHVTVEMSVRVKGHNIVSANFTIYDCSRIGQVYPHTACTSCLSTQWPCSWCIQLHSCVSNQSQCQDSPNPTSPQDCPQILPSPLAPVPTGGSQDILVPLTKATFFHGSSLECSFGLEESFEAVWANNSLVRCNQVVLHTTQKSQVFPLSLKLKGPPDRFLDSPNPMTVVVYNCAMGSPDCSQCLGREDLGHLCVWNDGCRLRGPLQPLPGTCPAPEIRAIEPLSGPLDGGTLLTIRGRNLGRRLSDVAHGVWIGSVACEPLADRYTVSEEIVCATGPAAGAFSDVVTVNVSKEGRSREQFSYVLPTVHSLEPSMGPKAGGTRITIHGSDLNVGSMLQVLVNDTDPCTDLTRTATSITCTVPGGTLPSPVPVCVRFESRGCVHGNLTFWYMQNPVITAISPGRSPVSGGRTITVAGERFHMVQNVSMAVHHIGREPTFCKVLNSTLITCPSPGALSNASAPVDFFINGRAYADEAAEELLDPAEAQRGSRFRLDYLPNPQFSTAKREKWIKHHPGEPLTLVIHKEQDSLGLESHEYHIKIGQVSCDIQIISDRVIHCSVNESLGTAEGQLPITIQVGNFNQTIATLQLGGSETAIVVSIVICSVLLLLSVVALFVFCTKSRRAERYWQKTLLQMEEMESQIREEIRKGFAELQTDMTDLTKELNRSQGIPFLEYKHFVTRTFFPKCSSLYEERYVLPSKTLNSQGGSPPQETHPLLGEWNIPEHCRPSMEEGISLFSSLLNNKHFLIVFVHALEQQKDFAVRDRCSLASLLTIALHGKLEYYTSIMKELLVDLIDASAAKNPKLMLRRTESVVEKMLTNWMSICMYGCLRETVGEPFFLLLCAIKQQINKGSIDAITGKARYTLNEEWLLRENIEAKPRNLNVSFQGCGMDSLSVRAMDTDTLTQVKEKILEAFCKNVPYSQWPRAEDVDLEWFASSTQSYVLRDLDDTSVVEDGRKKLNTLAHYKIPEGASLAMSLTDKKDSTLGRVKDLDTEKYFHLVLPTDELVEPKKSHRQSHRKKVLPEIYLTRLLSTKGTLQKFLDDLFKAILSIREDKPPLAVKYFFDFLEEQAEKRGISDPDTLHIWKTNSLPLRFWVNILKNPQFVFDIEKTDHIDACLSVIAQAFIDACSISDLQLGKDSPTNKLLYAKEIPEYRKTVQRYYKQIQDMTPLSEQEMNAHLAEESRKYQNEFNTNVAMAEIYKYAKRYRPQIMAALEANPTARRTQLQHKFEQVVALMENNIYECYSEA

Results are given in words; binding and its absence hold for the method and conditions named. Some results given as binding are weak or reduced against the parent protein; the word gives no strength. Where a sequence is shown, tags or fusion partners need not be part of it.

The experiment deals with plexinD1 on DP thymocytes (mouse (endogenous in thymocytes)) (UniProt Q3UH93). Nature of the experiment: flow cytometry on cells; single cell suspensions of thymocytes (2 x 10^6 total) blocked with 2.4G2 Ab, stained with purified sema3E-Fc (5 μg/ml) for 15 min; bound sema3E-Fc detected with anti-mouse IgG2c-PE; gated on DP, CD4SP, CD8SP and DN; WT against D1ThyCKO thymocytes; only the binder purified.

B1: Sema3E-Fc (Fc fusion, UniProt P70275 26-775)
chain: ANPSYPRLRLSHKELLELNRTSIFQSPLGFLDLHTMLLDEYQERLFVGGRDLVYSLNLERVSDGYREIYWPSTAVKVEECIMKGKDANECANYIRVLHHYNRTHLLTCATGAFDPHCAFIRVGHHSEEPLFHLESHRSERGRGRCPFDPNSSFVSTLVGNELFAGLYSDYWGRDSAIFRSMGKLGHIRTEHDDERLLKEPKFVGSYMIPDNEDRDDNKMYFFFTEKALEAENNAHTIYTRVGRLCVNDMGGQRILVNKWSTFLKARLVCSVPGMNGIDTYFDELEDVFLLPTRDPKNPVIFGLFNTTSNIFRGHAVCVYHMSSIREAFNGPYAHKEGPEYHWSLYEGKVPYPRPGSCASKVNGGKYGTTKDYPDDAIRFARMHPLMYQPIKPVHKKPILVKTDGKYNLRQLAVDRVEAEDGQYDVLFIGTDTGIVLKVITIYNQETEWMEEVILEELQIFKDPAPIISMEISSKRQQLYIGSASAVAQVRFHHCDMYGSACADCCLARDPYCAWDGISCSRYYPTGAHAKRRFRRQDVRHGNAAQQCFGQQFVGDALDRTEERLAYGIESNSTLLECTPRSLQAKVIWFVQKGRDVRKEEVKTDDRVVKMDLGLLFLRVRKSDAGTYFCQTVEHNFVHTVRKITLEVVEEHKVEGMFHKDHEEERHHKMPCPPLSGMSQGTKPWYKEFLQLIGYSNFQRVEEYCEKVWCTDKKRKKLKMSPSKWKYANPQEKRLRSKAEHFRLPRHTLLS
As to B1, the binding entry is “binds”.
